Common to all, as to experiment: protein microarray (ProtoArray v5.0), streptavidin-Alexa Fluor 647
Common to all, as to conditions: 3'-biotin; 20 mM Tris (pH 7.5), 5 mM MgCl2, 100 mM KCl, 0.1% Tween-20, A/T-rich and random oligonucleotide blockers; temperature not stated; high values mean tight binding

The chains behind the UniProt entries cited, without tags or fusion partners.
UniProt Q9NWU2, whole entry: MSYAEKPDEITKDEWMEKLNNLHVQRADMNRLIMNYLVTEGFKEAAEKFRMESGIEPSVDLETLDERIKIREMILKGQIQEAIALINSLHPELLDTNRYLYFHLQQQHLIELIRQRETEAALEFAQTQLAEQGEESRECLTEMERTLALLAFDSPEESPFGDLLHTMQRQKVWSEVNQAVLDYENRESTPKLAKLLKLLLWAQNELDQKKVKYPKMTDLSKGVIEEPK

In assay [1] the test system is C1orf80 (human).
The subject of assay [2] is C1orf90 (human).
Assay [3] concerns C1orf91 (human).
In assay [4] the test system is C1orf94 (human).
Assay [5] deals with C20orf11 (UniProt Q9NWU2).
For assay [6], the system named is C20orf114 (human).
Assay [7] deals with C20orf121 (human).
Assay [8] has as its system C20orf141 (human).
Assay [9] relates to C20orf142 (human).
Assay [10] concerns C20orf149 (human).

One sequence from publication PMC5996148 can be followed below.

Some of the results follow. For some of these results: The source does not settle which construct or isoform was used.

For “GGGAGGCTGAGGCAGG [G4-1 biotinylated (PQS2)]”, the binding signal was -0.295 z-score in assay [1]; -0.299 z-score in [2]; -0.351 z-score in assay [3]; -0.277 z-score in assay [4]; -0.338 z-score in assay [5]; -0.354 z-score in assay [6]. In addition, the binding signal in assay [7] is -0.294 z-score; in [8], -0.331 z-score; in assay [9] it was -0.353 z-score; in [10], -0.302 z-score.
